For this assay, the target named is GPRC5A-FLAG (human (cDNA from TREX-BCBL-1 cells)) (UniProt Q8NFJ5). Description: affinity purification with mass spectrometry; FLAG M2 antibody on Protein A or G Dynabeads, lysates of latent and lytic (reactivated) GPRC5A-FLAG TREx-BCBL1-Rta cells against parental cells, overnight at 4 °C; buffer 150 mM NaCl, 2 mM EDTA, 0.5% Triton-X 100, 0.5 mM DTT, 10 mM Tris pH 7.4; TMT LC-MS/MS, two replicates.

Amino acid sequences for entries named in this document (tags omitted).
UniProt Q8NFJ5: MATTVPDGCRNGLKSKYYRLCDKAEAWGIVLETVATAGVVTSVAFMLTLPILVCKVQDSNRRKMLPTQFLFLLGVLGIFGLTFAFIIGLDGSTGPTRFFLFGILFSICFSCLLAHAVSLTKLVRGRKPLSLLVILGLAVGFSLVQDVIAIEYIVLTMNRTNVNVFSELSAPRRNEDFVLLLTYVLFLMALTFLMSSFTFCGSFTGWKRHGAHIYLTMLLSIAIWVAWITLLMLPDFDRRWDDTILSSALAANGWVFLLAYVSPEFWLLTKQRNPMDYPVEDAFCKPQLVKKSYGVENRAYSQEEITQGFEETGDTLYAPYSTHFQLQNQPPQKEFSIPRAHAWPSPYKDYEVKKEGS

No constants are given. Whether binding was seen depends on the method and setting. In cells and extracts the contact can be indirect. Here binding means that the protein was enriched with, or labelled near, the bait; the list need not be complete.

B1: FLOT2 (protein, UniProt Q14254 1-428)
chain: MGNCHTVGPNEALVVSGGCCGSDYKQYVFGGWAWAWWCISDTQRISLEIMTLQPRCEDVETAEGVALTVTGVAQVKIMTEKELLAVACEQFLGKNVQDIKNVVLQTLEGHLRSILGTLTVEQIYQDRDQFAKLVREVAAPDVGRMGIEILSFTIKDVYDKVDYLSSLGKTQTAVVQRDADIGVAEAERDAGIREAECKKEMLDVKFMADTKIADSKRAFELQKSAFSEEVNIKTAEAQLAYELQGAREQQKIRQEEIEIEVVQRKKQIAVEAQEILRTDKELIATVRRPAEAEAHRIQQIAEGEKVKQVLLAQAEAEKIRKIGEAEAAVIEAMGKAEAERMKLKAEAYQKYGDAAKMALVLEALPQIAAKIAAPLTKVDEIVVLSGDNSKVTSEVNRLLAELPASVHALTGVDLSKIPLIKKATGVQV
Take B1: the binding entry is on record as “binds”.

B2: FLOT1 (protein, UniProt O75955 1-427)
chain: MFFTCGPNEAMVVSGFCRSPPVMVAGGRVFVLPCIQQIQRISLNTLTLNVKSEKVYTRHGVPISVTGIAQVKIQGQNKEMLAAACQMFLGKTEAEIAHIALETLEGHQRAIMAHMTVEEIYKDRQKFSEQVFKVASSDLVNMGISVVSYTLKDIHDDQDYLHSLGKARTAQVQKDARIGEAEAKRDAGIREAKAKQEKVSAQYLSEIEMAKAQRDYELKKAAYDIEVNTRRAQADLAYQLQVAKTKQQIEEQRVQVQVVERAQQVAVQEQEIARREKELEARVRKPAEAERYKLERLAEAEKSQLIMQAEAEAASVRMRGEAEAFAIGARARAEAEQMAKKAEAFQLYQEAAQLDMLLEKLPQVAEEISGPLTSANKITLVSSGSGTMGAAKVTGEVLDILTRLPESVERLTGVSISQVNHKPLRTA
For the molecule B2, the binding entry is “binds”.

These data come from paper PMC10303434.
